This passage reports binding results from PMC12526889.

The chains behind the UniProt entries cited, without tags or fusion partners. Where a name states a change or a piece, a line headed by the entry shows the natural chain unless it says otherwise.
UniProt F4JHD1: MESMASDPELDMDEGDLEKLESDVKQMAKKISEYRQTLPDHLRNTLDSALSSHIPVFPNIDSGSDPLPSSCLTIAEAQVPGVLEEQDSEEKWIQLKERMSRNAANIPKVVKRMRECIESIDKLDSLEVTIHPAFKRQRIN
UniProt F4IWJ9: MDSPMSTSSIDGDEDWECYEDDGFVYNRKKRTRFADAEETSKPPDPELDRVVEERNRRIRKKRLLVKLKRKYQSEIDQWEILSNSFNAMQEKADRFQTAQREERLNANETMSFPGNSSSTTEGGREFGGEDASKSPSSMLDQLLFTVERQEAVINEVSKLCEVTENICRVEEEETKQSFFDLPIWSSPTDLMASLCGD
UniProt F4IVI0: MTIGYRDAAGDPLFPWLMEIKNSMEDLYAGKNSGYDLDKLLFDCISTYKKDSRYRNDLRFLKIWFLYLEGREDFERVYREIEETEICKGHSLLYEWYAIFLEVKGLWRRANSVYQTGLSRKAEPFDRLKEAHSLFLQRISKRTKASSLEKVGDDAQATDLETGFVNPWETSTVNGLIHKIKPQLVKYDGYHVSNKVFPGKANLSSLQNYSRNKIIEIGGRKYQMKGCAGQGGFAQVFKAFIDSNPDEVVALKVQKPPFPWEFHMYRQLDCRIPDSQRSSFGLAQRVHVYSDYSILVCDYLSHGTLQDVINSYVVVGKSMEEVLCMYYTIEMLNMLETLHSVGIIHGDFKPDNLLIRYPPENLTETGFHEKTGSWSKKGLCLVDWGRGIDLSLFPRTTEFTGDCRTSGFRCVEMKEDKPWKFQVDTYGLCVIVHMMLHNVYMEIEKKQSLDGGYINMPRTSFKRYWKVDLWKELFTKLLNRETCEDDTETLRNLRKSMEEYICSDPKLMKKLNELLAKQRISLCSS
UniProt F4JT58: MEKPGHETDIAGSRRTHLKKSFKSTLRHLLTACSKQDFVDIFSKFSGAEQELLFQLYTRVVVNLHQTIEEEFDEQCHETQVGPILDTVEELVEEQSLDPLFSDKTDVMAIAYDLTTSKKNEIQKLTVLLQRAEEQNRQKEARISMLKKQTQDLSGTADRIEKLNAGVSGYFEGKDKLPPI

These are yes or no findings as the source states them, for the method shown. For part of these data: Binding calls can cover weak binding; strength is not graded here. For part of these data: Tags and fused reporters may be left off the sequences shown. For part of these data: Binding seen in cells or lysates may run through a third protein.

Assay [1] has as its target NSL1.1 (Arabidopsis), two-hybrid fusion (Arabidopsis thaliana) (UniProt F4JHD1). The experiment in a line: two-hybrid; GAL4 DNA-BD (pGBT9-GW) and AD (pGAD424-GW) fusions in yeast AH109; growth on -TLH (moderately selective) and -TLHA (severely selective) media, 30 °C, 3 days; BD constructs of CENP-C, SPC24.1, DSN1 and ZWINT1.1 self-activated.
Assay [2] has as its target T1, Centromere protein C (CENP-C, Arabidopsis), two-hybrid fusion (Arabidopsis thaliana) (UniProt Q66LG9).
T1 sequence: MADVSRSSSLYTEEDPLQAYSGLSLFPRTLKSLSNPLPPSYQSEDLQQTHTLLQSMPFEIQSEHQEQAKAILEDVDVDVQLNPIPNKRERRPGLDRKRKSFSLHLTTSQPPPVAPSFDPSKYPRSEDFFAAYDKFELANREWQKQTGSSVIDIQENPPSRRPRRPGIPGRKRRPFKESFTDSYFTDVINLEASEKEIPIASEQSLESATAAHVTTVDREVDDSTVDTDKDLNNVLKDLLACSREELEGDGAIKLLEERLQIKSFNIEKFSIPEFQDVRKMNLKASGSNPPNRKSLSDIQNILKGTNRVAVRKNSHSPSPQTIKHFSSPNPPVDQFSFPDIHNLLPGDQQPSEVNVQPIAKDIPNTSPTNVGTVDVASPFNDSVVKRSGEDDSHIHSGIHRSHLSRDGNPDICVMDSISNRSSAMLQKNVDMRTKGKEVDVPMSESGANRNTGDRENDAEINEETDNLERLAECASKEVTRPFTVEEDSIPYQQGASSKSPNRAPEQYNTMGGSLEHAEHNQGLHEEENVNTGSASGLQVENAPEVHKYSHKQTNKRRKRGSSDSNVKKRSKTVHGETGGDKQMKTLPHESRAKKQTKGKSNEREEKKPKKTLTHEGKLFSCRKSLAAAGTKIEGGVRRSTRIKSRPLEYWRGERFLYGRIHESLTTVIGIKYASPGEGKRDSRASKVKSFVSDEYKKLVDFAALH
The assay is described as above.

For assay [3], the target named is T2, MIS12 (Arabidopsis), two-hybrid fusion (Arabidopsis thaliana) (UniProt Q2V0Z5).
T2 sequence: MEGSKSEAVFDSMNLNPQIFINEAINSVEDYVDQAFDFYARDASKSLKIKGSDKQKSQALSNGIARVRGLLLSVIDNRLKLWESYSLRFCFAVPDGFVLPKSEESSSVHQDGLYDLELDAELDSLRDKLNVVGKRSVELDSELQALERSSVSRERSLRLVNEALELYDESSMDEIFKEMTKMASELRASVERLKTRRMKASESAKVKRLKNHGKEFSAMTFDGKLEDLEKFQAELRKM
Described as above.

For assay [4], the target named is T3, Yn:CENP-C (BiFC fusion) (Arabidopsis thaliana) (UniProt Q66LG9).
T3 sequence: T1 sequence
The experiment in a line: split reporter; BiFC: fusions to the N-terminal and C-terminal fragments of YFP coinfiltrated with p19 into N. benthamiana leaves; confocal imaging 3 days after inoculation.

In assay [5] the target is KNL1 (Arabidopsis), two-hybrid fusion (Arabidopsis thaliana). As to the kind of experiment: two-hybrid; GAL4 DNA-BD (pGBT9-GW) and AD (pGAD424-GW) fusions in yeast AH109; growth on -TLH (moderately selective) and -TLHA (severely selective) media, 30 °C, 3 days; BD constructs of CENP-C, SPC24.1, DSN1 and ZWINT1.1 self-activated.
Assay [6] has as its target KNL1 region spanning amino acids 350 to 450, two-hybrid fusion (Arabidopsis thaliana). The description is as above.
Assay [7] addresses KNL1 (BiFC fusion) (Arabidopsis thaliana). As to the kind of experiment: split reporter; BiFC: fusions to the N-terminal and C-terminal fragments of YFP coinfiltrated with p19 into N. benthamiana leaves; confocal imaging 3 days after inoculation.
Assay [8] concerns the target KNL1 fragment: ESD containing region, two-hybrid fusion (Arabidopsis thaliana). As to the kind of experiment: two-hybrid; GAL4 DNA-BD (pGBT9-GW) and AD (pGAD424-GW) fusions in yeast AH109; growth on -TLH (moderately selective) and -TLHA (severely selective) media, 30 °C, 3 days; BD constructs of CENP-C, SPC24.1, DSN1 and ZWINT1.1 self-activated.
For assay [9], the target named is KNL1 fragment: coiled-coil (CC) domain, two-hybrid fusion (Arabidopsis thaliana). Described as above.

For the molecule “DSN1 (Arabidopsis), two-hybrid fusion (from UniProt F4IWJ9)”, the binding entry in [1] was “binds”.

“BMF1 (Arabidopsis), two-hybrid fusion (from UniProt F4IVI0)”: the binding result in assay [2] is “binds”.

As to “NNF1 (Arabidopsis), two-hybrid fusion (from UniProt F4JT58)”, in assay [3], the binding entry is “binds”.

In the case of “NNF1 fused to Yc (BiFC fusion) (Arabidopsis thaliana)”, the binding entry in assay [4] is recorded as “no binding”.

B1: MPS1 (Arabidopsis), two-hybrid fusion (enzyme, UniProt Q84VX4 1-777)
chain: MDREDNLPVQPDKPPKSLVRPILNLETTSSSSSSSSSSPELLRHLQAAFKRHRPLSKMQTTSIGPRRSVAPQRQASRNTRLVTAEGQRSQDVVTLSQSLAANTLTQDTTNNLAITSVAGESASITQPTVSEHFNPSDRQMDFGKSAVTSLESNLDVQRKSQSLIGTSQDMEWDATNQAEASHLDACIGSKHQNLPSVDSEVSLKSEYKDSSSLAKIQGQLGEFPNFLNQPRTRCSAVGSSWATTTLIHSSSAPMLNATTHVSRSYVEADSNANPHAVQSQGNLPSCCPSSKVSNILHPNKDATASEMPASTNDPEVRVKETDTSKQQQITTGLEAPVGSSIYGSDGQANARLPEELHTSVSSQPQKSDKHEKVASSKGPSAPRKRNYDPDLFFKVNGKLYQRLGKIGSGGSSEVHKVISSDCTIYALKKIKLKGRDYATAYGFCQEIGYLKKLKGKTNIIQLIDYEVTDKTLLQEVLNGTMSNKDGRVKEDGFIYMVLEYGEIDLAHMLSQKWREIEGSDRTIDENWLRFYWQQILQAVNTIHEERIVHSDLKPANFLLVRGFLKLIDFGIAKAINSDTTNIQRDSQVGTLSYMSPEAFMCNESDENGNTIKCGRPSDIWSLGCILYQMVYGRTPFADYKTFWAKFKVITDPNHEITYNQLSNPWLIDLMKKCLAWDRNQRWRIPELLQHPFLAPPIPHEPQVKTIKLFSLIAESCGSDDDKANSMISQLEQLLSNPAPLPRNDVLDSRDQNQQLLSRVSELCIQLQDRLQGLEGEN
Take B1: the binding result in assay [5] and in [6] was “binds” in each case.

B2: MPS1 (BiFC fusion) (enzyme, UniProt Q84VX4 1-777)
chain: B1 chain
For B2, the binding result in assay [7] is given as “no binding”.

B3: MIS12 (Arabidopsis), two-hybrid fusion (protein, UniProt Q2V0Z5 1-238)
chain: T2 sequence
Turning to B3, the binding entry in [8], in assay [9] and in [5] was “binds” each time.

B4: MAD1 (Arabidopsis), two-hybrid fusion (protein, UniProt Q9LTY1 1-726)
chain: MILRTPQPKRLRSDAGESPFPTGATGSGNQLIIYEDSPLPAPAPLQTSHDHSADQHLCTYQCRQMVKADVLDALSTAEKQVEESKTKLQTLNANFTEADAERKHFRDKFLYSEQELAAAKAREKMLQEQLLMEINNSQERYTKELQSCHELEVKLQNEMNLRKKAESSAATAEEKAKLLEDKLTQLSGSVDREKKRLNNDIAQLGKEAKLSVARIGADLERMQCRAQNAETESNLLRSQLEHLKLIFDECLQEKTEVDKKLSSFTSEAASSSDNSVLVKHLQEELKRYEAEVREARKLKSRHLDAELLNVNLLEEQSRRERAESELSKFHDLQLSMEKLENELSSWKSLLNDIPGVSCPDDIVMRFSVLQNEVVQSTMKIGEASTRIKQLEETLEAIQLGRQNAVSEAALAKEKSEALKTDVKRIEVMLTLVTEEKEQLKAVVNELRKSNSEGSVSGAADGALIQGFESSLAKKENYIKDLEQDLNQLKDVNNRQRTEIELLNEKLVDEARRNKSLERDSDRLRSEISLLESKLGHGDYSAANTRVLRMVNTLGVENEAKQTIEALQAELQKTKERLQAVEELKSQSGDAGKLVDSHITGKIAQLKEQNATLEKREERYKTVFADRISVFRRACCELFGYKIVMDEHQRPNGIPVTRFTLQSIYAQSDDEKLEFEYESGNTSILNNEYASQGDIAKQIEIFIRKFNSIPAFTANLTMESFNRRTLY
Consider B4, for which the binding entry in assay [8] and in assay [5] was “binds” throughout.

B5: NUF2 (Arabidopsis), two-hybrid fusion (protein, UniProt Q8RXJ0 1-440)
chain: MSAYEYPRLSRSDIITALKDAQIASVTETDLKTPTSDFVSELYTRILIYLDALDEEEKGQVDFEALEQLENPDHHATSMQAMKLYCKVKDMLEMLDCPLPISFKDLLRPESSRTEFFISALLNYGLYKDSKMDLIRPKAEELGLLDEQRKQCEAKVAQLNAEIGEFDEAVERDLPFVQELEANIEQLNKKILELNNQQMSLRATFQKMREKSTQMDNEISKAEFDLVETVQENANLRSQIVQSPDKLQGALEEKKLVLGETKKAEQSAMVTFQEKAAILEVFEKALKKILKSSSQLQLINEQVTNAKTVEKEFKALKDKLSEDGVAYKSLEAKVVERERIVEQLNESLKQLEKEKAVMFDDWTKQLNELKVEVESRRRELETRQTNVESVVAMVDDNTAKTNQVRQSGEAKVKKLAAKYEEIVKQFHEYTVSFDAFLPSL
On to B5, for which the binding entry in assay [8], in [9] and in [5] was “binds” in each case.
